The list does not hold the whole screen: it gathers tests that were run many times, whatever their T/C, doses with no T/C, and many T/C values between a quarter and a half above the control. Further doses and runs are listed elsewhere. T/C gives the treated animals as a percentage of the vehicle group. Some doses have a count of surviving animals in place of a T/C: the source files T/C as zero there, which appears to mark a toxic dose or a test without result, not a measured value. Some doses without a T/C left all or most animals alive at the check, yet need not have been tolerated: the source hardly ever lists a survival T/C far under the control, and the zero likely stands for such cases as well. Survivors were counted at the toxicity check, usually on the fifth day, unless a day is given; later deaths do not show. Schedules are NCI's codes, taken here to give the interval after Q, in days (D) or hours (H), and the number of doses after X. Some schedules carry Z or #; the key to these is not given. For survival time, the PubChem record calls one and a half times the control and up active, and a quarter to a half above the control has no call in these data; cut-offs in other NCI protocols can differ. Some T/C values are followed by the survivors on the day toxicity was checked, most often the fifth; without a count, all were alive then.
System: L1210 leukemia ip in BDF1 mice, survival T/C
Assay: NCI In Vivo Anticancer Drug Screen. Data for tumor model L1210 Leukemia (intraperitoneal) in B6D2F1 (BDF1) mice
Conditions: T/C endpoint: mean survival time, higher T/C = longer survival
[1] = dose: 100.0 mg/kg/injection, schedule: Q04DX002 (ip), vehicle: saline
[2] = dose: 400.0 mg/kg/injection, schedule: Q01DX001 (ip), vehicle: saline
[3] = dose: 400.0 mg/kg/injection, schedule: Q04DX002 (ip), vehicle: saline with Tween-80
[4] = dose: 400.0 mg/kg/injection, schedule: Q04DX003 (ip), vehicle: saline
[5] = dose: 400.0 mg/kg/injection, schedule: Q01DX009 (ip), vehicle: saline with Tween-80
[6] = dose: 100.0 mg/kg/injection, schedule: Q04DX002 (ip), vehicle: saline with Tween-80
[7] = dose: 400.0 mg/kg/injection, schedule: Q04DX003 (ip), vehicle: saline with Tween-80
[8] = dose: 200.0 mg/kg/injection, schedule: Q04DX002 (ip), vehicle: saline with Tween-80

O=[N+]([O-])/C=C/c1ccc(F)cc1
survivor count (dose: 150.0 mg/kg/injection, schedule: Q01DX001 (ip), vehicle: alcohol): 1 of 6 | survivor count (dose: 300.0 mg/kg/injection, schedule: Q01DX001 (ip), vehicle: alcohol): 1 of 6

CNc1nc2c(N)ncnc2n1C1OC(CO)C(O)C1O (stereo not given)
T/C [1]: 127 % of control [4 of 6 alive] | survivor count (dose: 200.0 mg/kg/injection, schedule: Q01DX001 (ip), vehicle: saline): 0 of 4 | survivor count (dose: 200.0 mg/kg/injection, schedule: Q04DX002 (ip), vehicle: saline): 0 of 6 | survivor count (dose: 200.0 mg/kg/injection, schedule: Q04DX002 (ip), vehicle: suspension in saline): 0 of 6 | survivor count [2]: 0 of 4

CC(C)NCc1ccccc1
survivor count [3]: 0 of 3

O=c1ssc(Cl)c1Cl
survivor count (dose: 75.0 mg/kg/injection, schedule: Q01DX001 (ip), vehicle: other): 0 of 6 | survivor count (dose: 150.0 mg/kg/injection, schedule: Q01DX001 (ip), vehicle: other): 0 of 6 | survivor count (dose: 300.0 mg/kg/injection, schedule: Q01DX001 (ip), vehicle: other): 0 of 6

CCCOc1ccc(Nc2c3ccccc3nc3ccccc23)cc1
survivor count (dose: 400.0 mg/kg/injection, schedule: Q04DX003 (ip), vehicle: Klucel (hydroxypropylcellulose) (HPC)): 1 of 6

NOCCCCCCON
survivor count [4]: 2 of 4

CCC(=O)Nc1cccc(Cl)c1
survivor count [5]: 2 of 6

O=C(Nc1ccccc1)C(Br)c1ccccc1 (stereo not given)
survivor count [4]: 3 of 6

CN(C)c1n[nH]c(N)n1
T/C [6]: 128 % of control | T/C [1]: 126 % of control

O=C(NC(NC(=O)c1ccc(Cl)cc1)C(Cl)(Cl)Cl)c1ccc(Cl)cc1
survivor count (dose: 200.0 mg/kg/injection, schedule: Q04DX003 (ip), vehicle: saline with Tween-80): 6 of 6 | survivor count [7]: 6 of 6

O=c1[nH]c(-c2ccccc2N=NN2CCCCC2)nc2ccccc12
survivor count [8]: 3 of 3

Nc1nc(N)c(N=O)c(Nc2ccc(Cl)c(Cl)c2)n1
survivor count (dose: 50.0 mg/kg/injection, schedule: Q01DX Z (ip), vehicle: carboxymethylcellulose (CMC)): 6 of 6 | survivor count (dose: 200.0 mg/kg/injection, schedule: Q01DX Z (ip), vehicle: carboxymethylcellulose (CMC)): 6 of 6

C[CH2][Ge]([CH2]C)([CH2]C)[CH2]C#N
survivor count [6]: 0 of 3 | survivor count [8]: 0 of 3 | survivor count [3]: 0 of 3

O=C1c2ccccc2C(=O)N1CN1C(=O)c2ccccc2C1=O
survivor count [7]: 6 of 6

CC1([N+](=O)[O-])COP(=O)(N2CC2)OC1 (stereo not given)
survivor count (dose: 250.0 mg/kg/injection, schedule: Q01DX Z (ip), vehicle: carboxymethylcellulose (CMC)): 3 of 6 | survivor count (dose: 500.0 mg/kg/injection, schedule: Q01DX Z (ip), vehicle: carboxymethylcellulose (CMC)): 0 of 6

O=C(O)c1cc(C(F)(F)F)nc2c1ccc1ccccc12
survivor count (dose: 300.0 mg/kg/injection, schedule: Q01DX001 (ip), vehicle: saline): 2 of 6

CCCCn1c(O)c(C=N)c(=O)n(CCCC)c1=O
survivor count (dose: 200.0 mg/kg/injection, schedule: Q01DX009 (ip), vehicle: saline with Tween-80): 2 of 6 | survivor count [5]: 4 of 6

CCCN(CCC)C(=O)CCN1CC1
survivor count (dose: 50.0 mg/kg/injection, schedule: Q01DX001 (ip), vehicle: carboxymethylcellulose (CMC)): 2 of 4 | survivor count (dose: 80.0 mg/kg/injection, schedule: Q01DX001 (ip), vehicle: carboxymethylcellulose (CMC)): 0 of 4 | survivor count (dose: 100.0 mg/kg/injection, schedule: Q01DX001 (ip), vehicle: carboxymethylcellulose (CMC)): 1 of 4 | survivor count (dose: 200.0 mg/kg/injection, schedule: Q01DX001 (ip), vehicle: carboxymethylcellulose (CMC)): 0 of 4 | survivor count (dose: 400.0 mg/kg/injection, schedule: Q01DX001 (ip), vehicle: carboxymethylcellulose (CMC)): 0 of 4

Cc1cccc2c(C)c3cccc[n+]3cc12
survivor count (dose: 32.0 mg/kg/injection, schedule: Q01DX Z (ip), vehicle: carboxymethylcellulose (CMC)): 4 of 6 | survivor count (dose: 64.0 mg/kg/injection, schedule: Q01DX Z (ip), vehicle: carboxymethylcellulose (CMC)): 0 of 6

CCCCCCCCCCCC(=O)N/N=C/c1ccccc1OC
survivor count (dose: 200.0 mg/kg/injection, schedule: Q01DX009 (ip), vehicle: Klucel (hydroxypropylcellulose) (HPC)): 6 of 6 | survivor count (dose: 400.0 mg/kg/injection, schedule: Q01DX009 (ip), vehicle: Klucel (hydroxypropylcellulose) (HPC)): 6 of 6

CC(CC(=O)O)C(C(=O)O)C(=O)O (stereo not given)
survivor count (dose: 400.0 mg/kg/injection, schedule: Q01DX009 (ip), vehicle: water): 0 of 6

NCCc1c[nH]c2ccccc12
survivor count [2]: 0 of 4

O=[N+]([O-])c1cccc2nonc12
survivor count (dose: 50.0 mg/kg/injection, schedule: Q04DX002 (ip), vehicle: Klucel (hydroxypropylcellulose) (HPC)): 1 of 3 | survivor count (dose: 100.0 mg/kg/injection, schedule: Q04DX002 (ip), vehicle: Klucel (hydroxypropylcellulose) (HPC)): 0 of 3 | survivor count (dose: 200.0 mg/kg/injection, schedule: Q04DX002 (ip), vehicle: Klucel (hydroxypropylcellulose) (HPC)): 0 of 3

— PubChem BioAssay AID248 (DTP/NCI, 2004)
